Measurements from PMC9475553, “SHF Acts as a Novel Tumor Suppressor in Glioblastoma Multiforme by Disrupting STAT3 Dimerization” (Advanced Science, 2022).
These are yes or no findings as the source states them, for the method shown. Binding seen in cells or lysates may run through a third protein. Some results given as binding are weak or reduced against the parent protein; the word gives no strength. For some of these results: Tags and fused reporters may be left off the sequences shown. One block for each binder: values may come before it.

Amino acid sequences for entries named in this document (tags omitted). A change or cut given only in a name is not applied to a line headed by its entry. Chains listed by the source or under a name are the forms on record and can include a tag or linker.
UniProt P40763: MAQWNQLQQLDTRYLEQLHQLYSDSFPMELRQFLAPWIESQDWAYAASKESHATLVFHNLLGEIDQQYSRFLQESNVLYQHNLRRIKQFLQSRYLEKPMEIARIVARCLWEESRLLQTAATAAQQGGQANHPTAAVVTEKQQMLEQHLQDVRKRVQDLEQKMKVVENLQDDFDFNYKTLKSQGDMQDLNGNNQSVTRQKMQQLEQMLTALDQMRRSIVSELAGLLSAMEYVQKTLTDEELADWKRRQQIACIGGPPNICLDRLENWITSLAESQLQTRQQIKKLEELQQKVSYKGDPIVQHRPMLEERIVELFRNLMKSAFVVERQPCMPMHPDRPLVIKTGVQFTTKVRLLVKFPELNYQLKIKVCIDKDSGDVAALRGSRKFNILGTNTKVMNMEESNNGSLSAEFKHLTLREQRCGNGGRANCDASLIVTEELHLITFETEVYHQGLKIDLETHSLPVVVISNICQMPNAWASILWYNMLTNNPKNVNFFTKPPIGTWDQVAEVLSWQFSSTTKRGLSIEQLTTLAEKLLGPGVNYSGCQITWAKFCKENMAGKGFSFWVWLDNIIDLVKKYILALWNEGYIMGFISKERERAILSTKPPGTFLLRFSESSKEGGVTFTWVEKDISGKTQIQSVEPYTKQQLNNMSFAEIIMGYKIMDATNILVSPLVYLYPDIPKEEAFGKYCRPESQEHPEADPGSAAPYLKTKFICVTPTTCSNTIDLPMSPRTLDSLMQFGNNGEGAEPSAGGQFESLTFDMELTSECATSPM
STAT3 K4Q (SH2 domain acetylation mimetic) (P40763, form named): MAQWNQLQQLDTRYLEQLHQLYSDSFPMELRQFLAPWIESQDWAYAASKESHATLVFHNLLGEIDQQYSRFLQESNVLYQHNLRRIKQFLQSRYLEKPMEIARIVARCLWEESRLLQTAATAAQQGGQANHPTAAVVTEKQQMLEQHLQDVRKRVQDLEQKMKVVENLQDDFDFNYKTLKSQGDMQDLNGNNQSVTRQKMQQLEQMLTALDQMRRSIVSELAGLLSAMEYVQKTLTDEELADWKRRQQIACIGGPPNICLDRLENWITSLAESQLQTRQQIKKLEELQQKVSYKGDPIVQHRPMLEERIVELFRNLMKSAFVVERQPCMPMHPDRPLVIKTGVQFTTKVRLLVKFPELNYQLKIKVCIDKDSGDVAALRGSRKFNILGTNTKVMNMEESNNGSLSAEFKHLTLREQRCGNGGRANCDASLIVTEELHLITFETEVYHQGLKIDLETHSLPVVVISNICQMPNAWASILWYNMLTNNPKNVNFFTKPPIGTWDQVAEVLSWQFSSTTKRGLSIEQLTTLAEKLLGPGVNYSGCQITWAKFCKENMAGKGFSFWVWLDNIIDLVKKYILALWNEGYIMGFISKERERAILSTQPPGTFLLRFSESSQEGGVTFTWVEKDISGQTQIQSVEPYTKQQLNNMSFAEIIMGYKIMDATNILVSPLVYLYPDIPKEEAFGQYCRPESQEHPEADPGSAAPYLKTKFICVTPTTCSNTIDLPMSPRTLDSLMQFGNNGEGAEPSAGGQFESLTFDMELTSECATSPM
STAT3 K4R (SH2 domain non-acetylation mutant) (P40763, form named): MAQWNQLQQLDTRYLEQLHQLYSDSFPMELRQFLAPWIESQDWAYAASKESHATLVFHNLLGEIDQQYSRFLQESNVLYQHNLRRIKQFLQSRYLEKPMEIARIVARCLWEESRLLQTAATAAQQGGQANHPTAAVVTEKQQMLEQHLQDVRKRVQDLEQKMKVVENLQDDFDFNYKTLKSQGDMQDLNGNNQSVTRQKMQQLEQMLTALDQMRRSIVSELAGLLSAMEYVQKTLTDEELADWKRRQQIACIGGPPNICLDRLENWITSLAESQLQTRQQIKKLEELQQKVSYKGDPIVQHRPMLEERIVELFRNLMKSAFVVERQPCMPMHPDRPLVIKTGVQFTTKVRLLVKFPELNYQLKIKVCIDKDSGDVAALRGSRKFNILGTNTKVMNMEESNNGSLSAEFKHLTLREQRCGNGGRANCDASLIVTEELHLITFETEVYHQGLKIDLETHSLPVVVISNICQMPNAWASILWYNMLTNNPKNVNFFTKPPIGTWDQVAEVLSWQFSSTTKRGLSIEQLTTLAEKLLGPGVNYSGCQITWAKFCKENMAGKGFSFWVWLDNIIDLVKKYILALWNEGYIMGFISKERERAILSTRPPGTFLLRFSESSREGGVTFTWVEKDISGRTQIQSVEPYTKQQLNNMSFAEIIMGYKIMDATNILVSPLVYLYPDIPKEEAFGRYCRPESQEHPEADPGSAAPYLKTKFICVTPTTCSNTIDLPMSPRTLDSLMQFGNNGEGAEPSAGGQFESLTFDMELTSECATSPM
STAT3 YS2D (phosphorylation mimic, Y705 and S727 to aspartate) (P40763, form named): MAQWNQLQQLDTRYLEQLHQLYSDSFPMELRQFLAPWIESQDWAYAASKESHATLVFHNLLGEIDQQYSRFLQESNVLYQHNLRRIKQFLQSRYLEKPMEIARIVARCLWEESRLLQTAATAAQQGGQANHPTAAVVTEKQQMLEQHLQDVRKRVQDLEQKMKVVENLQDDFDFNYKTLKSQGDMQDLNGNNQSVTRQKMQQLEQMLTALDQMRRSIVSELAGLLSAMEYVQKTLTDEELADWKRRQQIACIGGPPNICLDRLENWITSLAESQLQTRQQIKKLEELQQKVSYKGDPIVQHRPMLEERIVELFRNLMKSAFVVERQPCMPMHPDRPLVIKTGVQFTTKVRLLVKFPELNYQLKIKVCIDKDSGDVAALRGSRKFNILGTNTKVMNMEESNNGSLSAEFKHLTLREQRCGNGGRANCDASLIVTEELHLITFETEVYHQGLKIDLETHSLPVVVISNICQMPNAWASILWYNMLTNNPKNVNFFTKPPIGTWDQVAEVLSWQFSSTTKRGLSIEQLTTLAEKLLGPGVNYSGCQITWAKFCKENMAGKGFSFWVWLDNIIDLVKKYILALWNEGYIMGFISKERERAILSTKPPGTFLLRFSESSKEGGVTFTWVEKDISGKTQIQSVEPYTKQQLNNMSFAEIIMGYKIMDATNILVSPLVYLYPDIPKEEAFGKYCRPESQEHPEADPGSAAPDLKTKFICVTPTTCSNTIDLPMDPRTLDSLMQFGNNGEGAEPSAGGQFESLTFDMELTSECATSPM

Legend:
[1] = molecular target: endogenous STAT3 of GBM cells (human (endogenous in U87 and U251)), P40763; test: co-IP; GBM cells (U87, U251) with stable ectopic SHF-mCherry or control; endogenous proteins or infected Flag-STAT3; whole-cell lysates, Protein A/G beads, Western blot; in one panel p300 siRNA; settings: remark: other sources report otherwise
[2] = molecular target: Flag-STAT3 (signal transducer and activator of transcription 3), wild type (human) (UniProt P40763); test: co-IP; 293T cells transfected with the indicated tagged vectors; whole-cell lysates precipitated with Flag, HA or Myc antibody on Protein A/G beads, Western blot; in some panels IL6 (10 ng mL^-1, 2 h) before harvest
[3] = molecular target: STAT3 K4Q (SH2 domain acetylation mimetic) (human) (UniProt P40763); test: as above
[4] = molecular target: STAT3 K4R (SH2 domain non-acetylation mutant) (human) (UniProt P40763); test: as above
[5] = molecular target: STAT3 YS2A (Y705A and S727A double non-phosphorylation mutant) (human) (UniProt P40763); test: as above
[6] = molecular target: STAT3 YS2D (phosphorylation mimic, Y705 and S727 to aspartate) (human) (UniProt P40763); test: as above
[7] = molecular target: STAT3-EGFP (FRET fusion) (human) (UniProt P40763); test: FRET or BRET; spectral FRET in U251 cells, EGFP donor (488 nm) and DsRed acceptor (565 nm), imaged after 24 h; for the inhibition ectopic SHF-expressing stable U251 cells
[8] = molecular target: Flag-STAT3, ectopic in GBM cells (human) (UniProt P40763); test: co-IP; GBM cells (U87, U251) with stable ectopic SHF-mCherry or control; endogenous proteins or infected Flag-STAT3; whole-cell lysates, Protein A/G beads, Western blot; in one panel p300 siRNA
[9] = molecular target: endogenous STAT1 of GBM cells (human (endogenous in U87 and U251)) (UniProt P42224); test: as above
[10] = molecular target: endogenous STAT3 of GBM cells (human (endogenous in U87 and U251)) (UniProt P40763); test: as above
[11] = molecular target: STAT3-nEGFP (BiFC fusion) (human) (UniProt P40763); test: split reporter; BiFC in U251 cells transfected with STAT3-nEGFP and STAT3-cEGFP or SHF-cEGFP for 16 h, fixed, confocal microscope

binding [1]: no binding
B1: endogenous STAT1 of GBM cells, P42224 1-750 (protein)
chain: MSQWYELQQLDSKFLEQVHQLYDDSFPMEIRQYLAQWLEKQDWEHAANDVSFATIRFHDLLSQLDDQYSRFSLENNFLLQHNIRKSKRNLQDNFQEDPIQMSMIIYSCLKEERKILENAQRFNQAQSGNIQSTVMLDKQKELDSKVRNVKDKVMCIEHEIKSLEDLQDEYDFKCKTLQNREHETNGVAKSDQKQEQLLLKKMYLMLDNKRKEVVHKIIELLNVTELTQNALINDELVEWKRRQQSACIGGPPNACLDQLQNWFTIVAESLQQVRQQLKKLEELEQKYTYEHDPITKNKQVLWDRTFSLFQQLIQSSFVVERQPCMPTHPQRPLVLKTGVQFTVKLRLLVKLQELNYNLKVKVLFDKDVNERNTVKGFRKFNILGTHTKVMNMEESTNGSLAAEFRHLQLKEQKNAGTRTNEGPLIVTEELHSLSFETQLCQPGLVIDLETTSLPVVVISNVSQLPSGWASILWYNMLVAEPRNLSFFLTPPCARWAQLSEVLSWQFSSVTKRGLNVDQLNMLGEKLLGPNASPDGLIPWTRFCKENINDKNFPFWLWIESILELIKKHLLPLWNDGCIMGFISKERERALLKDQQPGTFLLRFSESSREGAITFTWVERSQNGGEPDFHAVEPYTKKELSAVTFPDIIRNYKVMAAENIPENPLKYLYPNIDKDHAFGKYYSRPKEAPEPMELDGPKGTGYIKTELISVSEVHPSRLQTTDNLLPMSPEEFDEVSRIVGSVEFDSMMNTV

binding [2]: binds
B2: SHF SH2 construct (SH2) (domain or fragment, UniProt Q7M4L6 323-418)
chain: WYHGAISRTDAENLLRLCKEASYLVRNSETSKNDFSLSLKSSQGFMHMKLSRTKEHKYVLGQNSPPFSSVPEIVHHYASRKLPIKGAEHMSLLYPV

binding [2]: binds
binding [3]: binds
binding [4]: binds weakly
binding [5]: binds
binding [6]: binds
B3: HA-SHF (SH2 domain-containing adapter protein F) (protein, UniProt Q7M4L6 1-423)
chain: MQQEGGPVRSAPCRTGTLEGSRQGSPGHRKRASPKGSLSSAQPHSWMLTPSPLNSHCAHREPISSSPQPVANGPKQKKKSNWRSTTRLRIIRLRDRLEPRPLAILEDYADPFDVQETGEGSAGASGAPEKVPENDGYMEPYEAQKMMAEIRGSKETATQPLPLYDTPYEPEEDGATAEGEGAPWPRESRLPEDDERPPEEYDQPWEWKKERISKAFAVDIKVIKDLPWPPPVGQLDSSPSLPDGDRDISGPASPLPEPSLEDSSAQFEGPEKSCLSPGREEKGRLPPRLSAGNPKSAKPLSMEPSSPLGEWTDPALPLENQVWYHGAISRTDAENLLRLCKEASYLVRNSETSKNDFSLSLKSSQGFMHMKLSRTKEHKYVLGQNSPPFSSVPEIVHHYASRKLPIKGAEHMSLLYPVAIRTL

binding [7]: binds
binding [8]: binds
binding [9]: binds
binding [10]: binds
B4: SHF-mCherry (ectopic SHF in GBM cells) (protein, UniProt Q7M4L6 1-423)
chain: B3 chain

binding [7]: binds
B5: SHF-DsRed (FRET fusion) (protein, UniProt Q7M4L6 1-423)
chain: B3 chain

binding [11]: binds
B6: SHF-cEGFP (BiFC fusion) (protein, UniProt Q7M4L6 1-423)
chain: B3 chain
